Results on 40 compounds are retold here after the supplement of paper PMC8256030.

“And” between values parts separate entries of the source, which are not always exact repeats. Equal entries are not always repeated. Some of the results follow. Single values are uncertain here, since repeats match poorly.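 HEK293T cells were given each compound shortly before transfection with a reporter in which red mCherry is followed by the SARS-CoV-2 frameshift element and then GFP in the −1 frame, so GFP appears only after frameshifting.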

In this assay the test system is HEK293T. Description: percent viability (nuclei count) relative to control; higher = more viable cells. Particulars: 10 µM; 24 h.
With `O=C(O)c1cc(=O)c2c(OCC(O)COc3cccc4oc(C(=O)O)cc(=O)c34)cccc2o1`, the percent viability came to 132%.

`CCN[C@@H]1C[C@H](N)[C@@H](O[C@H]2OC(CN)=CC[C@H]2N)[C@H](O)[C@H]1O[C@H]1OC[C@](C)(O)[C@H](NC)[C@H]1O`: the percent viability worked out at 188%.

Take `CCCCC(=O)O[C@]1(C(=O)CO)CC[C@H]2[C@@H]3CCC4=CC(=O)CC[C@]4(C)[C@H]3[C@@H](O)C[C@@]21C`: the percent viability is 223%.

Consider `CC(C)(C)C(=O)OCOP(=O)(COCCn1cnc2c(N)ncnc21)OCOC(=O)C(C)(C)C` [Hepsera], for which the percent viability turned out to be 172%.

For the compound `O=S(=O)(O)CCCS(=O)(=O)O`, the percent viability is 398%.

In the case of `CO/N=C(\C(=O)N[C@@H]1C(=O)N2C(C(=O)O)=C(COC(N)=O)CS[C@H]12)c1ccco1`, the percent viability amounted to 159%.

In the case of `CCOc1nc2cccc(C(=O)O)c2n1Cc1ccc(-c2ccccc2-c2nn[nH]n2)cc1`, the percent viability amounted to 336%.

As for `CN(CCCCCCCCCCN(C)C(=O)Oc1cccc([N+](C)(C)C)c1)C(=O)Oc1cccc([N+](C)(C)C)c1` [Humorsol], the percent viability was determined as 200%.

`C[C@H]1[C@H](NC(=O)/C(=N\OC(C)(C)C(=O)O)c2csc(N)n2)C(=O)N1S(=O)(=O)O` [aztreonam]: the percent viability came to 245%.

Turning to `O=C1NOCC1/N=C/c1ccc(/C=N/C2CONC2=O)cc1` (stereo not given) [terizidone], the percent viability worked out at 226%.

For `O=C(CCCN1CCC(O)(c2ccc(Br)cc2)CC1)c1ccc(F)cc1` [bromperidol], the percent viability stood at 181%.

For `NC(=O)c1ncn([C@@H]2O[C@H](CO)[C@@H](O)[C@H]2O)c1N` [acadesine], the percent viability came to 214%.

Turning to `CC1=NN(c2ccccc2)C(=O)C1` [edaravone], the percent viability worked out at 210%.

With `Cc1ccc(C(C)C)c(O)c1` [Thymol], the percent viability was 259%.

As to `CCN(CC)CCNC(=O)c1cc(Cl)c(N)cc1OC` [metoclopramide], the percent viability is 115% and 246%.

Turning to `CN1CCN(C2=Nc3ccccc3Oc3ccc(Cl)cc32)CC1` [loxapine], the percent viability was found to be 231%.

In the case of `CC(C)=C/C(C)=N/Nc1nncc2ccccc12` [budralazine], the percent viability was 402%.

For the compound `CC(=O)N(C)C1(c2ccccc2)CCN(CCC[C@]2(c3ccc(Cl)c(Cl)c3)CCCN(C(=O)c3ccccc3)C2)CC1` [osanetant], the percent viability turned out to be 239%.

For the compound `NNC(=O)c1ccncc1.Nc1ccc(C(=O)O)c(O)c1` [pasiniazid], the percent viability was determined as 178%.

Regarding `CCC1(c2ccccc2)C(=O)NCNC1=O` [primidone], the percent viability was 180%.

As to `CCN(CC)CCOc1ccc2c(c1)C(=O)c1cc(OCCN(CC)CC)ccc1-2`, the percent viability was 244%.

With `Cc1cc(C(C)(C)C)c(O)c(C(C)(C)C)c1`, the percent viability was 52.8%.

Take `CN1C2CCCC1CC(NC(=O)c1nn(C)c3ccccc13)C2` (stereo not given): the percent viability was 143%.

As to `Cc1ccc(Nc2c(F)cccc2Cl)c(CC(=O)O)c1` [lumiracoxib], the percent viability worked out at 102%.

As for `COC[C@H]1O[C@@H](OC2OC[C@@H]3O[C@]4(O[C@H]3[C@H]2OC(=O)C(C)C)O[C@H](C)[C@@](O)(C(C)=O)[C@@H]2OCO[C@H]24)[C@@H](OC)[C@@H](O)[C@@H]1O[C@@H]1O[C@H](C)[C@H](OC)[C@H](O[C@H]2C[C@@]3(C)OC4(C[C@@H](O)[C@H](O[C@H]5C[C@@H](O)[C@H](OC(=O)c6c(C)c(Cl)c(O)c(Cl)c6OC)[C@@H](C)O5)[C@@H](C)O4)O[C@@H]3[C@@H](C)O2)[C@H]1O` (stereo not given in full) [avilamycin], the percent viability stood at 292%.

Consider `COC(=O)/C=C/C(=O)OC`, for which the percent viability came out at 233%.

Take `CCOc1nc2cccc(C(=O)O)c2n1Cc1ccc(-c2ccccc2-c2nnn[nH]2)cc1` [candesartan]: the percent viability worked out at 233%.

Regarding `NS(=O)(=O)c1cc(C(=O)O)c(NCc2ccco2)cc1Cl` [furosemide], the percent viability is 222% and 199%.

For the compound `CC(=O)Nc1c(I)cc(I)c(C(=O)O)c1I` [sodium acetrizoate], the percent viability was 108%.

On to `Cc1ncc(C[n+]2csc(CCO)c2C)c(N)n1` [Vitamin B1], for which the percent viability was determined as 240%.

Consider `CC1(C)S[C@@H]2[C@H](NC(=O)[C@H](N)c3ccccc3)C(=O)N2[C@H]1C(=O)OC1OC(=O)c2ccccc21` (stereo not given in full) [talampicillin], for which the percent viability amounted to 172%.

With `CCC(=O)c1c(O)cc(O)cc1O` [flopropione], the percent viability turned out to be 212%.

For `O=C(O)/C=C/C(=O)O`, the percent viability worked out at 181%.

For the compound `C=CC1=C(C(=O)O)N2C(=O)[C@@H](NC(=O)/C(=N\OCC(=O)O)c3csc(N)n3)[C@H]2SC1` [Suprax], the percent viability was found to be 195%.

For `Nc1nc(=O)c2c([nH]1)NCC(CNc1ccc(C(=O)N[C@@H](CCC(=O)O)C(=O)O)cc1)N2C=O` (stereo not given in full) [Leucovorin], the percent viability stood at 218%.

Regarding `CC[C@H](c1ccc(O)cc1)[C@@H](CC)c1ccc(O)cc1` [hexestrol], the percent viability was 282% and 153%.

On to `CC(C)[C@H](N)C(=O)OCCOCn1cnc2c(=O)nc(N)[nH]c21` [valaciclovir], for which the percent viability worked out at 227%.

`Cc1ncc([N+](=O)[O-])n1CCO` [metronidazole]: the percent viability was 271% and 209%.

Turning to `CCOC(=O)NNc1ccc(N(CC)CC(C)O)nn1` (stereo not given) [cadralazine], the percent viability was determined as 143%.

For `Nc1ccn([C@H]2CO[C@@H](CO)S2)c(=O)n1` [apricitabine], the percent viability was found to be 126%.
